The assay deals with HEK293A TEAD-LUC reporter. Nature of the assay: TEAD-luciferase reporter activity (YAP activation), robust Z score vs plate; higher = stronger YAP/TEAD activation. The note with it: 24 h.

This is one part of the list. Repeats in this data set agree poorly, so a single value says little.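 The human kidney-derived cells carry a stably integrated construct of eight TEAD-binding elements driving luciferase, read by luminescence in a drug-repurposing library screen. A compound counts as a hit when its signal is more than five robust Z scores above the plate mean.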

`COc1ccc(C(C)=O)c(OCCCS(=O)(=O)c2ccccc2)c1`: the TEAD-luciferase reporter activity (compound concentration: 200 nM) is inactive: -0.553, the TEAD-luciferase reporter activity (compound concentration: 2 uM) was inactive: -1.36 and the TEAD-luciferase reporter activity (compound concentration: 10 uM) is inactive: -0.415.
For the compound `CCCCCCCCCC[N+](C)(C)CCOC(=O)C12CC3CC(CC(C3)C1)C2`, the TEAD-luciferase reporter activity was inactive: -1.3 (compound concentration: 200 nM), inactive: -0.793 (compound concentration: 2 uM) and inactive: 2.54 (compound concentration: 10 uM).
On to `CN(C(=O)CNc1nc(-c2ccc(C(F)(F)F)cc2)nc(-c2ccccc2)c1Cl)C1CC1`, for which the TEAD-luciferase reporter activity runs as follows: (compound concentration: 200 nM) inactive: -2.52; (compound concentration: 2 uM) inactive: 1.77; (compound concentration: 10 uM) inactive: 1.65.
Taken in the same sequence, the figures for `OC1(c2ccccc2)C2=NCCCN2c2ccccc21` (centres undefined) were inactive: 0.121, inactive: -2.51 and inactive: 0.301.
On the same counts, the results for `COc1cc(Nc2ncc3c(n2)-c2ccc(Cl)cc2C(c2c(F)cccc2OC)=NC3)ccc1C(=O)O` [alisertib] are inactive: -0.8, inactive: -1.44 and inactive: -0.12.
Taken in the same sequence, the figures for `C[C@H](/C=C/[C@H](C)C(C)(C)O)[C@H]1CC[C@H]2/C(=C/C=C3C[C@@H](O)C[C@H](O)C3)CCCC12C` (some centres undefined) [Paricalcitol] were inactive: -0.674, inactive: -1.34 and inactive: -1.48.
For `O=c1[nH]c(=O)n([C@H]2C[C@H](O)[C@@H](CO)O2)cc1I` [idoxuridine, APR], the TEAD-luciferase reporter activity (compound concentration: 2 uM) was inactive: 2.35.
Consider `O=c1[nH]c(=O)n([C@H]2C[C@H](O)[C@@H](CO)O2)cc1I` [Idoxuridine], for which the TEAD-luciferase reporter activity is inactive: -1.21 (compound concentration: 200 nM) and inactive: 2.44 (compound concentration: 10 uM).
With `CCOCn1c(Cc2ccccc2)c(C(C)C)c(=O)[nH]c1=O` [Emivirine], the TEAD-luciferase reporter activity (compound concentration: 200 nM) was inactive: 0.0545, the TEAD-luciferase reporter activity (compound concentration: 2 uM) was inactive: 0.0142 and the TEAD-luciferase reporter activity (compound concentration: 10 uM) was inactive: 1.9.
Taken in the same sequence, the figures for `CCO[C@@H]1OC(=O)C[C@@H]1NC(=O)[C@@H]1CCCN2C(=O)CC[C@H](NC(=O)c3nccc4ccccc34)C(=O)N12` [pralnacasan] were inactive: -0.594, inactive: 1.67 and inactive: -1.78.
Taken in the same sequence, the figures for `O=C(Oc1ccc2c(c1)CCCN2C(=O)C(Cl)Cl)c1ccco1` [quinfamide] were inactive: -1.76, inactive: -0.38 and inactive: 3.79.
Taken in the same sequence, the figures for `CC(=O)C(=O)[O-]` [Sodium pyruvate] were inactive: 1.33, inactive: -0.257 and inactive: -1.05.
Regarding `C[C@@H]1CC[C@]2(C)CC[C@]3(C)C(=CC(=O)C4[C@@]5(C)CC[C@@H](O)[C@](C)(C(=O)O)C5CC[C@]43C)C2[C@H]1C` (stereo partly drawn) [11-Keto-beta-boswellic acid], the TEAD-luciferase reporter activity was inactive: 0.247 (compound concentration: 200 nM), inactive: -0.559 (compound concentration: 2 uM) and inactive: -0.138 (compound concentration: 10 uM).
On to `COc1ccc2[nH]cc(CCNC(=O)c3cc(=O)c(OC)co3)c2c1`, for which the TEAD-luciferase reporter activity was inactive: -0.308 (compound concentration: 200 nM), inactive: 1.68 (compound concentration: 2 uM) and inactive: -1.93 (compound concentration: 10 uM).
With `NC[C@H]1O[C@H](O[C@H]2[C@H](O)[C@@H](O[C@H]3O[C@H](CO)[C@@H](O)[C@H](N)[C@H]3O)[C@H](N)C[C@@H]2N)[C@H](O)[C@@H](O)[C@@H]1O` [Kanamycin], the TEAD-luciferase reporter activity was inactive: 2.85 (compound concentration: 200 nM), inactive: -0.625 (compound concentration: 2 uM) and active: 5.3 (compound concentration: 10 uM).
On the same counts, the results for `O=C(O)Cc1ccccc1Oc1ccc(Cl)cc1Cl` [fenclofenac] are inactive: -0.272, inactive: -1.56 and inactive: -0.243.
As to `CC(C)=CCOc1cc(NC(=S)c2ccoc2)ccc1Cl`, the TEAD-luciferase reporter activity is, setting by setting: (compound concentration: 200 nM) inactive: -0.89; (compound concentration: 2 uM) inactive: -0.279; (compound concentration: 10 uM) inactive: -0.99.
Consider `CCOc1ccc(Cc2cc([C@@H]3O[C@H](SC)[C@@H](O)[C@H](O)[C@H]3O)ccc2Cl)cc1` [Sotagliflozin], for which the TEAD-luciferase reporter activity runs as follows: (compound concentration: 200 nM) inactive: -1.17; (compound concentration: 2 uM) inactive: 0.224; (compound concentration: 10 uM) inactive: 0.855.
As for `CCC[C@@H](NC(=O)N1C(=O)C(CC)(CC)[C@H]1Oc1ccc(CC(=O)O)cc1)c1ccc(C)cc1`, the TEAD-luciferase reporter activity reads like this: (compound concentration: 200 nM) inactive: 0.276; (compound concentration: 2 uM) inactive: -1.02; (compound concentration: 10 uM) inactive: -1.31.
Taken in the same sequence, the figures for `CCN(CC)CCNc1ccc(CNS(C)(=O)=O)c2sc3ccccc3c(=O)c12` were inactive: -2.06, inactive: -0.931 and inactive: 0.278.
Take `CCOC(=O)Nc1cccc2c1CN(C)CC2c1ccc(Cl)cc1` (centres undefined): the TEAD-luciferase reporter activity is inactive: -1.19 (compound concentration: 200 nM), inactive: -0.31 (compound concentration: 2 uM) and inactive: 3.51 (compound concentration: 10 uM).
Take `C[C@]12C=CC(=O)C=C1CC[C@@H]1[C@@H]2[C@@H](O)C[C@@]2(C)[C@H]1CC[C@]2(O)C(=O)OCCl`: the TEAD-luciferase reporter activity was inactive: 0.311 (compound concentration: 200 nM), inactive: 2.12 (compound concentration: 2 uM) and inactive: -0.475 (compound concentration: 10 uM).
Taken in the same sequence, the figures for `Cc1nc2ccccn2c(=O)c1CCN1CCC(=C(c2ccc(F)cc2)c2ccc(F)cc2)CC1` [Seganserin] were inactive: -0.452, inactive: -0.833 and inactive: 1.54.
As to `O=c1cc(-c2ccccc2Cl)c2ccc(OCCc3cncn3Cc3ccccc3)c(CCc3ccccc3)c2o1`, the TEAD-luciferase reporter activity (compound concentration: 200 nM) is inactive: -0.393, the TEAD-luciferase reporter activity (compound concentration: 2 uM) was inactive: -1.33 and the TEAD-luciferase reporter activity (compound concentration: 10 uM) is inactive: -1.58.

Source of the values: the supplement of paper PMC10735217.
